# Some of the results follow. Further columns of the screen follow, without active or inactive calls. The list favours compounds with an active or inconclusive main result. Potencies come from curve fits of mixed quality, noted in brackets.
# Test: qHTS Assay for Lipid Storage Modulators in Drosophila S3 Cells;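 as to cell number change: cells counted by Cell Tracker Red CMTPX staining in the red channel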
# Conditions: BODIPY lipid droplet fluorescence, 18-24 h; for cell number change: measured here: cell count max response, cells fed with added oleic acid
# Summary of the method: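 Drosophila S3 cells loaded with oleic acid (400 uM, as added) and compounds at several concentrations; lipid droplets imaged by 488-nm laser-scanning cytometry, 500–530 nm intensity and object ratio to cell channel. Percent activity normalized to 20 uM Triacsin C.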
# [1] = measured here: cell number channel AC50, cells fed with added oleic acid
# [2] = measured here: lipid fluorescence (Fed channel) AC50, cells fed with added oleic acid
SMILES,cell number change [%],AC50 [1],AC50 [2]
CCN(CC(=O)Nc1cc(Cl)ccc1C)C(=O)c1nc2nc(C)cc(C)n2n1,34.3,"0.461 µM [rising, full curve]","1.16 µM [rising, full curve]"
CCn1c(=O)c2sccc2n2c(CCCC(=O)NCCc3ccc(S(N)(=O)=O)cc3)nnc12,23.4,,
O=C(NC1CCCCC1)c1n[nH]c2c1CCCCC2,-24.9,,"4.11 µM [falling, single point]"
CNCC(O)COc1cccc(OC)c1 (stereo not drawn),7.06,"0.731 µM [falling, full curve]","0.731 µM [falling, full curve]"
O=C(Nc1ncccc1O)c1ccc(NS(=O)(=O)c2ccc3[nH]c(=O)[nH]c3c2)cc1,67.5,"25.9 µM [rising, partial curve, poor fit]","5.17 µM [rising, partial curve]"
O=c1c2c3nc4ccccc4nc3n(-c3cccc(F)c3)c2ncn1Cc1ccc2c(c1)OCO2,34.8,"29.1 µM [rising, single point]","0.058 µM [rising, full curve, poor fit]"
CC(OC(=O)c1cccc(S(=O)(=O)N2CCOCC2)c1)C(=O)NC1CCCCC1C (stereo not drawn),-5.04,,
FC(F)(F)c1ccc(Oc2ccccc2Cl)nc1,-32.5,"0.517 µM [falling, full curve]",
CCOc1ccc(NC(=O)c2ccc(CNc3c(N4CCCC4)c(=O)c3=O)cc2)cc1,-24.5,,"2.06 µM [falling, full curve]"
Cc1cc(C(F)(F)F)c(C#N)c(SCC(=O)Nc2nc3ccccc3s2)n1,-15.1,,"25.9 µM [falling, single point]"
Cc1ccc(CNC(=O)N2CCN(c3ccc(C)cc3)CC2)cc1,-22.7,,"0.58 µM [falling, single point]"
CN(C)CCNC(=O)c1c(NC(=O)c2ccccc2)sc2c1CCCC2,-1.17,,"14.6 µM [falling, single point]"
COc1ccc(NC(=O)c2ccc3ccccc3c2)cc1,-15.7,,"2.31 µM [rising, partial curve]"
C=C(C)CSc1nnc([C@H](CCSC)NC(=O)OC(C)(C)C)o1,45.8,"9.2 µM [rising, partial curve, poor fit]","0.366 µM [rising, full curve, poor fit]"
COc1cc(C)c(CNc2ccc(OC)c(OC)c2)cc1C,-25,,
COc1ccc(-c2ncc3ccccn23)cc1,2.52,,
COc1ccccc1Nc1nc(-c2sc(NC(=O)c3ccco3)nc2C)cs1,-14.9,,"0.461 µM [rising, full curve]"
COc1cccc(OCCCn2cc(/C=C3/C(=N)N4C=C(C)SC4=NC3=O)c3ccccc32)c1,-0.999,,"29.1 µM [falling, single point]"
C=CC[C@@H]1C=C[C@H](O/N=C/c2ccc(C(=O)N3[C@H](c4ccc(C)cc4)[C@@H](C)CC[C@H]3C(=O)OC)cc2)[C@@H](CO)O1,-33.9,"8.2 µM [falling, partial curve]","8.2 µM [falling, partial curve]"
COc1ccccc1N1CCN(C(=O)CCN2C(=O)c3cccc4cccc(c34)C2=O)CC1,2.99,,"20.6 µM [rising, single point]"
COC(=O)c1nn(-c2ccc(Cl)cc2)c(=O)cc1Sc1ccccn1,-19.5,,"29.1 µM [falling, single point]"
O=c1c(-c2ccc(Br)cc2)coc2c(CN3CCCCC3)c(O)ccc12,-2.78,,"29.1 µM [falling, single point]"
O=C(NCC(c1ccco1)N1CCc2ccccc2C1)C(=O)Nc1ccc(F)cc1F (stereo not drawn),110,"16.4 µM [rising, partial curve]",
Cc1cc(C)n(-c2nc(NCCCO)c3c4c(sc3n2)CCCC4)n1,3.29,,"0.651 µM [rising, single point]"
Cc1cc(=O)c2c(C)ccc(C)c2[nH]1,9.23,,
COc1cc(OC)cc(C(=O)NNc2nc3cc4c(cc3s2)OCO4)c1,39,"1.84 µM [rising, partial curve]","6.51 µM [rising, partial curve]"
CCSc1nc2sc3c(c2c(=O)n1CC)CC(C)(C)OC3,-35.4,"32.6 µM [falling, single point]",
Cc1ccccc1NC(=O)c1cccc(OCc2c(C)noc2C)c1,1.22,,"0.58 µM [rising, full curve]"

# No new results follow: entries from further up.
SMILES,cell number change [%],AC50 [1],AC50 [2]
COc1ccccc1Nc1nc(-c2sc(NC(=O)c3ccco3)nc2C)cs1,-14.9,,"0.461 µM [rising, full curve]"
COc1cccc(OCCCn2cc(/C=C3/C(=N)N4C=C(C)SC4=NC3=O)c3ccccc32)c1,-0.999,,"29.1 µM [falling, single point]"
